These are yes or no findings as the source states them, for the method shown. In cells and extracts the contact can be indirect. Some results given as binding are weak or reduced against the parent protein; the word gives no strength. For some assays here: Tags and fused reporters may be left off the sequences shown.
B1: ERG, endogenous (protein, UniProt P11308 1-479, looked up)
chain: MASTIKEALSVVSEDQSLFECAYGTPHLAKTEMTASSSSDYGQTSKMSPRVPQQDWLSQPPARVTIKMECNPSQVNGSRNSPDECSVAKGGKMVGSPDTVGMNYGSYMEEKHMPPPNMTTNERRVIVPADPTLWSTDHVRQWLEWAVKEYGLPDVNILLFQNIDGKELCKMTKDDFQRLTPSYNADILLSHLHYLRETPLPHLTSDDVDKALQNSPRLMHARNTGGAAFIFPNTSVYPEATQRITTRPDLPYEPPRRSAWTGHGHPTPQSKAAQPSPSTVPKTEDQRPQLDPYQILGPTSSRLANPGSGQIQLWQFLLELLSDSSNSSCITWEGTNGEFKMTDPDEVARRWGERKSKPNMNYDKLSRALRYYYDKNIMTKVHGKRYAYKFDFHGIAQALQPHPPESSLYKYPSDLPYMGSYHAHPQKMNFVAPHPPALPVTSSSFFAAPNPYWNSPTGGIYPNTRLPTSHMPSHLGTYY
B2: Gluc1-FLI1 (full-length FLI1 fused downstream of Gluc1) (protein, UniProt Q01543 1-452, looked up, not shown: large carriers)
chain: MDGTIKEALSVVSDDQSLFDSAYGAAAHLPKADMTASGSPDYGQPHKINPLPPQQEWINQPVRVNVKREYDHMNGSRESPVDCSVSKCSKLVGGGESNPMNYNSYMDEKNGPPPPNMTTNERRVIVPADPTLWTQEHVRQWLEWAIKEYSLMEIDTSFFQNMDGKELCKMNKEDFLRATTLYNTEVLLSHLSYLRESSLLAYNTTSHTDQSSRLSVKEDPSYDSVRRGAWGNNMNSGLNKSPPLGGAQTISKNTEQRPQPDPYQILGPTSSRLANPGSGQIQLWQFLLELLSDSANASCITWEGTNGEFKMTDPDEVARRWGERKSKPNMNYDKLSRALRYYYDKNIMTKVHGKRYAYKFDFHGIAQALQPHPTESSMYKYPSDISYMPSYHAHQQKVNFVPPHPSSMPVTSSSFFGAASQYWTSPTGGIYPNPNVPRHPNTHVPSHLGSYY

Protein sequences, listed by entry. Tags and fused reporters are not part of them.
UniProt P04150: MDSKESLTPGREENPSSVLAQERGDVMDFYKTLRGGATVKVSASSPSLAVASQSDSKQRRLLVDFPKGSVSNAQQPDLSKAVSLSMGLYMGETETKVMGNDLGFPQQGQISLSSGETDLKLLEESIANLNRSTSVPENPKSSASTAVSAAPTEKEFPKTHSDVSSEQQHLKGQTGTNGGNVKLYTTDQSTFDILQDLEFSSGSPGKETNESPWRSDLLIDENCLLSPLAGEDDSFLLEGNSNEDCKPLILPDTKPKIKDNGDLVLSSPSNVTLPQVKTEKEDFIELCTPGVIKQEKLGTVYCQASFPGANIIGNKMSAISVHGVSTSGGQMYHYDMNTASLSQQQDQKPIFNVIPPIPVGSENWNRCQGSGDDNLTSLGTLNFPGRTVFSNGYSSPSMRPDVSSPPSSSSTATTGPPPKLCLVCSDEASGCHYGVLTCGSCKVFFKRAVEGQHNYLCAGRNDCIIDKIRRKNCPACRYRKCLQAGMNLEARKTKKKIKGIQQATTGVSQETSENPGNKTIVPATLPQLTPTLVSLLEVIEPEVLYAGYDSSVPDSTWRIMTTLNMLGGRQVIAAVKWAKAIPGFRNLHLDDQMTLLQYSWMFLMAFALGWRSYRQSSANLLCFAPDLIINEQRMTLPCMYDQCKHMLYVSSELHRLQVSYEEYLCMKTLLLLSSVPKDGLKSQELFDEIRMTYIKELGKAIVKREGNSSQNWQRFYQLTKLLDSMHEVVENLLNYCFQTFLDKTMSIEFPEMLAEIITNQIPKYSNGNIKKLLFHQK

Experiments:
[1] = molecular target: glucocorticoid receptor (GR), untagged (human) (UniProt P04150); assay: co-immunoprecipitation from HEK-293T extracts: IP of endogenous ERG, immunoblot for GR (FIG. 1E)
[2] = molecular target: glucocorticoid receptor (GR), untagged (human) (UniProt P04150); assay: co-immunoprecipitation with anti-Gluc antibody, immunoblot for endogenous GR, HEK-293 cells (FIG. 3C)

Row | Binder | binding [1] | binding [2]
1 | B1 | binds | 
2 | B2 |  | binds
